{
  "source": "the supplement of paper PMC12889115",
  "test_system": "Salmonella enterica serovar Typhimurium SL1344",
  "experiment": "bacterial growth OD600 after 18 h with compound and polymyxin B; higher = more bacterial growth (less inhibition)",
  "details": "50 µM, Mueller-Hinton broth",
  "note": "This is one part of the list. These are raw signals, not scaled to a control.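 First-pass screen: polymyxin B was added at a level that permeabilizes the Salmonella outer membrane while sparing the inner membrane. DMSO wells, with and without polymyxin B, defined maximum growth. Because plates differed from one another, each plate's data were ranked separately and the compounds with the lowest OD600 were carried forward as hits.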",
  "data": [
    {"molecule": "Cc1cccc(-n2ncc3c2CCCC3NC(=O)CCC(F)(F)F)c1C", "note": "(stereo unspecified)", "values": [
      {"measurement": "bacterial growth OD600", "setting": "polymyxin B 1 µg/mL", "value": 1.12}
    ]},
    {"molecule": "COc1ccc(Cc2noc(-c3ccc(N(C)CCn4ccnc4)nc3)n2)cc1", "values": [
      {"measurement": "bacterial growth OD600", "setting": "polymyxin B 1 µg/mL", "value": 0.817}
    ]},
    {"molecule": "CCC(=O)N(C)C(Cc1ccc(F)cc1F)C1CCN(C(=O)c2cccc(Cl)c2)CC1", "note": "(stereo unspecified)", "values": [
      {"measurement": "bacterial growth OD600", "setting": "polymyxin B 0.75 µg/mL", "value": 0.855}
    ]},
    {"molecule": "Cc1nc(C)c(CC(=O)NCc2cccnc2Oc2ccccc2C)s1", "values": [
      {"measurement": "bacterial growth OD600", "setting": "polymyxin B 0.75 µg/mL", "value": 0.92}
    ]},
    {"molecule": "c1cnc(N2CCC(C3CCN(c4nccc5occc45)C3)CC2)nc1", "note": "(stereo unspecified)", "values": [
      {"measurement": "bacterial growth OD600", "setting": "polymyxin B 0.75 µg/mL", "value": 0.554}
    ]},
    {"molecule": "C[C@@H]1CN(C(=O)c2coc(COc3ccccc3)n2)C[C@H](C)O1", "values": [
      {"measurement": "bacterial growth OD600", "setting": "polymyxin B 1 µg/mL", "value": 0.983}
    ]},
    {"molecule": "COc1c(C)cc(C(=O)C2CCCN(Cc3nc4ccc(F)cc4[nH]3)C2)cc1C", "note": "(stereo unspecified)", "values": [
      {"measurement": "bacterial growth OD600", "setting": "polymyxin B 1 µg/mL", "value": 0.541}
    ]},
    {"molecule": "COc1ccc(CN2CCN(Cc3cccc4c3OCO4)CC2CCO)c(F)c1", "note": "(stereo unspecified)", "values": [
      {"measurement": "bacterial growth OD600", "setting": "polymyxin B 1 µg/mL", "value": 1.13}
    ]},
    {"molecule": "COc1ccc(CN2CCC(CO)(CCCc3ccccc3)CC2)c(F)c1", "values": [
      {"measurement": "bacterial growth OD600", "setting": "polymyxin B 1 µg/mL", "value": 0.899}
    ]},
    {"molecule": "COc1cccc(CN2CCCC(CNC(=O)c3ccc(F)cc3)C2)c1OC", "note": "(stereo unspecified)", "values": [
      {"measurement": "bacterial growth OD600", "setting": "polymyxin B 1 µg/mL", "value": 0.817}
    ]},
    {"molecule": "CN(Cc1cccc(C(F)(F)F)c1)Cc1nc(Cc2ccccc2Cl)no1", "values": [
      {"measurement": "bacterial growth OD600", "setting": "polymyxin B 1 µg/mL", "value": 0.75}
    ]},
    {"molecule": "C=CCCC(=O)N1CCC(Oc2ccc(C(=O)NC3CCCC3)cc2Cl)CC1", "values": [
      {"measurement": "bacterial growth OD600", "setting": "polymyxin B 1 µg/mL", "value": 1.13}
    ]},
    {"molecule": "COc1ccc(CCc2nnc(CCC(=O)NCc3ccc(F)cc3F)o2)cc1", "values": [
      {"measurement": "bacterial growth OD600", "setting": "polymyxin B 1 µg/mL", "value": 0.854}
    ]},
    {"molecule": "COc1ccc(CN2CCOc3ccc(C4=Cc5ccccc5CC4)cc3C2)cc1O", "values": [
      {"measurement": "bacterial growth OD600", "setting": "polymyxin B 0.75 µg/mL", "value": 0.01}
    ]},
    {"molecule": "CC#CCN1C(=O)NC(CCCc2ccccc2)(C2CCN(C(=O)/C=C/c3ccccn3)CC2)C1=O", "note": "(stereo unspecified)", "values": [
      {"measurement": "bacterial growth OD600", "setting": "polymyxin B 0.75 µg/mL", "value": 0.053}
    ]},
    {"molecule": "CC(C)(C)c1ccc(-n2ncc3c2CCCC3NC(=O)CCN2CCCC2=O)cc1", "note": "(stereo unspecified)", "values": [
      {"measurement": "bacterial growth OD600", "setting": "polymyxin B 1 µg/mL", "value": 0.937}
    ]},
    {"molecule": "COCCN1CCN(C(=O)C2CCC(=O)N(CCc3ccc(Cl)cc3)C2)CC1", "note": "(stereo unspecified)", "values": [
      {"measurement": "bacterial growth OD600", "setting": "polymyxin B 1 µg/mL", "value": 0.918}
    ]},
    {"molecule": "CCc1ocnc1C(=O)N1CCC(C2CCN(Cc3cccc(F)c3F)CC2)C1", "note": "(stereo unspecified)", "values": [
      {"measurement": "bacterial growth OD600", "setting": "polymyxin B 0.75 µg/mL", "value": 0.929}
    ]},
    {"molecule": "Cc1cc(CN(C)C(=O)c2coc(COc3ccc(F)cc3Cl)n2)on1", "values": [
      {"measurement": "bacterial growth OD600", "setting": "polymyxin B 1 µg/mL", "value": 0.62}
    ]},
    {"molecule": "OCCOc1cccc(CN2CCOc3ccc(CN4CCC(Oc5cccnc5)CC4)cc3C2)c1", "values": [
      {"measurement": "bacterial growth OD600", "setting": "polymyxin B 0.75 µg/mL", "value": 0.791}
    ]},
    {"molecule": "Cc1cc(C(=O)N2CCC(n3nccc3NC(=O)c3cccc(F)c3)CC2)c(C)o1", "values": [
      {"measurement": "bacterial growth OD600", "setting": "polymyxin B 1 µg/mL", "value": 0.816}
    ]}
  ]
}
